For at least one compound, name, drawing or mass did not settle the structure.
Legend:
healthy male volunteers = experiment: Randomized, double-blind, placebo-controlled gastric emptying study (99Tc radiolabeled meal, external scintigraphy); assay type: in vivo, human; settings: omeprazole 20 mg b.i.d. monotherapy for 14 days
Procedure: Methodology: This is a single center, double-blind, randomized, parallel group trial using a placebo control or tegaserod 6 mg t.i.d. in combination with omeprazole 20 mg b.i.d. Gastric emptying is assessed using a standardized method that has been previously validated and found to be sensitive and specific. After an overnight fast, the subjects are asked to ingest a standardized ^99Tc radiolabeled meal (250 ml EggBeater, the equivalent of two eggs, two slices of white bread, 30 cc of strawberry jam and 120 ml of water). The level of radioactivity in gastric contents is measured by external scintigraphy immediately following completion of the meal and then at 60, 120 and 240 minutes after the end of the meal.
Number of subjects: 40 healthy male volunteers (20 per group)
Investigational drug: Tegaserod 6 mg tablets (supplied by Novartis Canada, but are normal 6 mg Zelnorm tablet obtainable as prescription) for oral administration. Each dose consists of a tablet to be taken with a glass of water within 15-30 minutes before mealtime three times daily. […]
Efficacy: The primary efficacy parameter is time to half emptying (T1/2) of gastric contents. The secondary efficacy endpoints were the calculated lag phase, and percent of gastric contents remaining in the stomach at 60, 120 and 240 minutes after ingestion of a standard meal. […]

healthy volunteers = settings: cited from earlier work

SMILES | percent of fond remaining in the stomach at 60 minutes, change from baseline (healthy male volunteers; 60 minutes post-test meal, p<0.002, paired T-test) | percent of fond remaining in the stomach at 120 minutes post-test meal, change from baseline (healthy male volunteers; 120 minutes post-test meal, p<0.04, paired T-test) | rate of gastric emptying (healthy volunteers; omeprazole daily doses of 20 to 40 mg, healthy volunteers) | gastric emptying function (solid-phase, 13C-octanoate breath test) (healthy volunteers; rabeprazole, literature (Anjiki et al. 2005))
COc1ccc2[nH]c([S+]([O-])Cc3ncc(C)c(OC)c3C)nc2c1 (stereo not shown) [omeprazole] | delayed gastric emptying | delayed gastric emptying | significantly delay the rate of gastric emptying | 
COCCCOc1ccnc(C[S+]([O-])c2nc3ccccc3[nH]2)c1C (stereo not shown) [rabeprazole] |  |  |  | dual effect with overall delay of gastric emptying function
